Laboratory results taken from patent publication US9981929B2, “Method for prevention of premature polymerization” (NITTO BELGIUM NV, priority 2015, dated 2018).

test: Kugelrohr distillation (purification) of SMA in the presence of the inhibitors; settings: distilled SMA; 500 ppm inhibitor, kugelrohr 240 °C, about 0.2 mbar
Procedure: The temperature of the kugelrohr is set to 240° C. The distillation starts when the vacuum reached about 0.2 mbar. Polymerization in the rotating pitch is evaluated by visually determining increased viscosity.
The inhibitors were added as such to the SMA prior to the distillation, no methanolic solution as described earlier is used.

SMILES | Yield (%)
CCCCCCCCS(=O)(=O)[O-].CN(C)c1ccc2nc3ccc(N(C)C)cc3[s+]c2c1 [Inhibitor I-1, octanesulfonate salt of methylene blue] | 93
CCCCCCCCS(=O)(=O)[O-].CN(C)c1ccc2nc3ccc(N(C)C)cc3[s+]c2c1.[Cl-].[Na+] [Inhibitor I-1a] | 92
CCCCCCCCCCCCCCCCS(=O)(=O)[O-].CN(C)c1ccc2nc3ccc(N(C)C)cc3[s+]c2c1.[Cl-].[Na+] [Inhibitor I-2a] | 95
